Results as given in PubChem BioAssay AID485314 (National Center for Advancing Translational Sciences (NCATS), 2010).
“And” between values parts separate entries of the source, which are not always exact repeats. Equal values may be shown once. Screen size: about 340,000 compounds; about 4,500 (1.3%) were called active. The inconclusive results got no clear call from the source; some entries with a clear call stand among them for comparison. Calls come from the whole dose curve; as a rule, active = well fitted inhibition curve with a large enough effect; inconclusive = small, poorly fitted or top-dose-only effect, or another doubt; inactive = no such curve, though single readings can be large or run the other way. Potencies beside an inconclusive call are fits to weak or partial responses and may not hold up.

target: DNA polymerase beta (Homo sapiens) (UniProt P06746); assay: qHTS Assay for Inhibitors of DNA Polymerase Beta; details: Pol beta primer extension/strand displacement, fluorescence kinetic; series mostly up to 114 µM
Outline: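 Values derive from four-parameter Hill fits of normalized kinetic data: reads at 0 and 10 min following addition of 50 nM substrate to 10 nM Pol beta preincubated 15 min with compound.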
Potency is the fitted concentration of half-maximal effect.

SMILES	Potency
COc1ccc(OC)c(CCNC(=O)CCc2cn(Cc3cc(C)ccc3C)c3ccccc23)c1	inconclusive: 0.141 µM [inhibitor, full curve, poor fit]
O=S(=O)(Nc1ncccn1)c1ccc(NC(=S)NCCc2ccc(Cl)cc2)cc1	inconclusive: 89.1 µM [inhibitor, single point]
Cc1ccc(CCNS(=O)(=O)c2cc3c(cc2C)n(C)c(=O)c(=O)n3C)cc1	inconclusive: 89.1 µM [inhibitor, single point]
Cc1cc2[nH]c(=O)c(=O)[nH]c2cc1S(=O)(=O)N1CCN(c2cccc(C(F)(F)F)c2)CC1	inactive and inconclusive: 89.1 µM [inhibitor, partial curve]
CCOC(=O)C1(Cc2cccc(Cl)c2)CCCN(C(=O)c2cnn(CC)c2)C1 (stereo not given)	inconclusive: 50.1 µM [inhibitor, partial curve]
Cc1ccc(C)c(NC(=O)Cn2nnc(C(=O)NCc3ccccc3Cl)c2N)c1	active: 35.5 µM
COc1ccc(C(=O)N(Cc2cc(OC)c(OC)c(OC)c2)c2ccccn2)cc1	inconclusive: 89.1 µM [inhibitor, single point]
COc1cc(/C=C(\C#N)c2nc(-c3cc4ccccc4oc3=O)cs2)ccc1O	inconclusive: 3.16 µM [inhibitor, full curve]
Clc1ccccc1CSc1nnc(-c2ccco2)c(-c2ccco2)n1	active: 4.47 µM
NC(=O)c1ccc(N2CCCCC2)c(N2C(=O)C3C4C=CC(C4)C3C2=O)c1 (stereo not given)	inconclusive: 79.4 µM [inhibitor, single point]
COc1ccc(-c2csc(N3CCN(Cc4ccc5c(c4)OCO5)CC3)n2)cc1	inconclusive: 89.1 µM [inhibitor, single point]
CC1=NN(c2ccccc2)C(=O)/C1=C/c1c(O)n(-c2ccc(F)cc2)[nH]c1=O	inconclusive: 50.1 µM [inhibitor, partial curve]
O=[N+]([O-])c1cc2oc3c(c2c(C=NCc2ccncc2)c1O)CCCC3	active: 17.8 µM
CCOC(=O)C1=C(O)/C(=C/c2ccc(-c3ccccc3C(=O)O)o2)SC1=Nc1ccc(OC)cc1	inconclusive: 89.1 µM [inhibitor, single point]
Cc1ccccc1C(=O)Nc1ccccc1NC(=O)c1ccccc1Br	inactive
NS(=O)(=O)c1ccc(N=Nc2ccc(=O)[nH]c2O)cc1	active: 6.31 µM
CCN1CCN(c2ncc3c(n2)CCN(Cc2sccc2C)C3)CC1	inactive
COc1cc(NC(=O)CC(C)S(=O)(=O)c2ccc3c(c2)CCN3C(C)=O)cc(OC)c1OC (stereo not given)	inactive
Cc1ccc(NC(=O)Nc2ccc3c(c2)N(C)C(=O)CS3)nc1	inconclusive: 70.8 µM [inhibitor, single point]
COc1cc(/C=N/NC(=O)c2ccc3c(c2)OCCO3)c(Br)c(Br)c1O	inconclusive: 50.1 µM [inhibitor, single point]
O=C1NC(=O)/C(=C/c2ccc(-c3cc(C(=O)O)ccc3Cl)o2)S1	active: 31.6 µM
O=C(Cn1cnc2c(nnn2Cc2ccccc2)c1=O)Nc1ccc2c(c1)OCCO2	inconclusive: 39.8 µM [inhibitor, single point]

SMILES	Potency
COc1ccc(NC(=O)c2c3c(nc4ccccc24)CCN(Cc2ccccc2)C3)c(OC)c1	inconclusive: 89.1 µM [inhibitor, single point]
Cc1nn(C)c(Oc2cccc(C(F)(F)F)c2)c1C#N	inconclusive: 79.4 µM [inhibitor, single point]
CCOC(=O)Cc1nc2cc(Cl)ccc2o1	inactive
COc1cccc(CNC(=O)Cc2ccc(NC(=O)C3=C(C)OCCS3)cc2)c1	active: 22.4 µM
COC(=O)COc1ccc2c(c1)O/C(=C\c1cccc([N+](=O)[O-])c1)C2=O	inconclusive: 39.8 µM [inhibitor, single point]
COc1cc(/C=C(/C(=O)c2cccs2)c2nc3ccccc3[nH]2)cc(OC)c1O	inconclusive: 39.8 µM [inhibitor, single point]
CCC(C(=O)OCC(=O)N(CCOC)c1c(N)n(Cc2ccccc2)c(=O)[nH]c1=O)c1ccccc1 (stereo not given)	inactive
CCOC(=O)c1cc2c(=O)n3cccc(C)c3nc2n(CCCOC)c1=NC(=O)c1cccnc1	inconclusive: 0.224 µM [inhibitor, full curve, poor fit]
O=c1c(=O)n(-c2ccccc2)ccn1Cc1cccc(C(F)(F)F)c1	inactive
C/C(=N\NC(=O)c1cc(O)ccc1O)c1cccc(NC(=O)c2ccc(Cl)cc2)c1	active: 44.7 µM
Cc1nn(CC(=O)Nc2ccc3c(c2)nc(CN2CCCC2)n3C)c(=O)c2ccccc12	inconclusive: 31.6 µM [inhibitor, partial curve]
CCOC(=O)Cn1c(=O)n(C2CCCCC2)c2nc(-c3ccc(OCC)cc3)nc(C(N)=O)c21	inactive
Cc1ccc(C)c(N(CC(=O)N/N=C/c2ccc(-c3ccc([N+](=O)[O-])cc3)o2)S(=O)(=O)c2ccccc2)c1	inactive
COc1ccc(Cn2ccnc2SCC(=O)NC2CCCC2)cc1	inconclusive: 89.1 µM [inhibitor, single point]
CCOc1ccc(CC(=O)Nc2nccs2)cc1OCC	inconclusive: 89.1 µM [inhibitor, single point]
CC1OC(OCC2OC(Oc3c(-c4ccc(O)cc4)oc4cc(O)cc(O)c4c3=O)C(O)C(O)C2O)C(O)C(O)C1O (stereo not given)	inconclusive: 3.98 µM [inhibitor, full curve]
Cc1cc(NC(=O)c2cccs2)ncc1NC(=O)c1cccc(F)c1	inconclusive: 89.1 µM [inhibitor, single point]
Cc1nn(C)c2c1c(C(F)(F)F)cc(=O)n2C(C)C(=O)NCCc1ccc(Cl)cc1 (stereo not given)	inconclusive: 79.4 µM [inhibitor, single point]
CCCN1C(=O)/C(=C/c2c(NCCCOCC)nc3c(C)cccn3c2=O)SC1=S	inactive
COc1cc(-c2ccc(NC(=O)NC3CC3)c(OC)c2)ccc1NC(=O)NC1CC1	inconclusive: 89.1 µM [inhibitor, single point]
Cc1c(CCC(=O)O)c(=O)oc2cc3occ(-c4ccc(F)cc4)c3cc12	inconclusive: 89.1 µM [inhibitor, single point]
O=C(C1=C(O)C(=O)N(c2ncccn2)C1c1cccs1)c1ccco1 (stereo not given)	inconclusive: 31.6 µM [inhibitor, full curve]

4 entries already listed, ordered by length of the SMILES, low to high.
SMILES	Potency
CCOc1ccc(CC(=O)Nc2nccs2)cc1OCC	inconclusive: 89.1 µM [inhibitor, single point]
Cc1nn(C)c(Oc2cccc(C(F)(F)F)c2)c1C#N	inconclusive: 79.4 µM [inhibitor, single point]
COc1cc(-c2ccc(NC(=O)NC3CC3)c(OC)c2)ccc1NC(=O)NC1CC1	inconclusive: 89.1 µM [inhibitor, single point]
Cc1nn(C)c2c1c(C(F)(F)F)cc(=O)n2C(C)C(=O)NCCc1ccc(Cl)cc1 (stereo not given)	inconclusive: 79.4 µM [inhibitor, single point]

Continued.

SMILES	Potency
CCOc1cc(CNc2ccc3[nH]c(=O)[nH]c3c2)ccc1OCC(=O)NC(C)(C)C	inconclusive: 50.1 µM [inhibitor, partial curve]
CCOc1ccc(C2C(C(=O)OC)=C(C)NC3=C2C(=O)c2ccccc23)cc1OC (stereo not given)	inconclusive: 0.141 µM [inhibitor, full curve, poor fit]
O=c1nc2n(c3cccc(Cl)c13)CCCCC2	inconclusive: 89.1 µM [inhibitor, single point]
O=C(/C=C/c1ccc(Br)cc1)NC(=O)c1ccccc1O	active: 31.6 µM
O=C(Nc1ccc(F)cc1Cl)C1CCN(c2ncnc3c2nc2n3CCCCC2)CC1	inactive
O=C(N/N=C/c1ccc([N+](=O)[O-])o1)c1cn(-c2ccccc2)nc1-c1ccc(Cl)cc1	inconclusive: 35.5 µM [inhibitor, partial curve]
Cc1nnc(SCc2ccc(C(=O)Nc3cc(Cl)ccc3C)cc2)s1	inconclusive: 89.1 µM [inhibitor, single point]
Cc1ccc(NC(=O)Nc2nc3ccccc3s2)cc1NC(=O)Nc1nc2ccccc2s1	inconclusive: 89.1 µM [inhibitor, single point]
O=C(NCCc1ccc(Cl)cc1)c1ccc(Cn2c(=O)[nH]c3ccccc3c2=O)cc1	inconclusive: 3.55 µM [inhibitor, full curve]
COc1cc(/C=C(/C#N)c2nc3ccccc3[nH]2)ccc1OCC(=O)Nc1ccccc1C	inconclusive: 2.51 µM [inhibitor, full curve, poor fit]
O=C1NC(CCc2ccccc2)C(=O)N1CCOc1cccc(Br)c1 (stereo not given)	inconclusive: 79.4 µM [inhibitor, single point]
Cc1cccc(C)c1NC(=O)Cn1cnc2c(=O)n(C)c(=O)n(C)c21	inconclusive: 0.316 µM [inhibitor, full curve]
COc1cccc2sc(Nc3nc(-c4cc5ccccc5oc4=O)cs3)nc12	active: 35.5 µM
COc1ccc(Nc2nc3c(S(=O)(=O)c4ccc(Br)cc4)nnn3c3ccsc23)c(OC)c1	inactive
CC1CCN(c2cc3c(cc2F)c(=O)c(S(=O)(=O)c2ccc(Cl)cc2)cn3C)CC1	inconclusive: 89.1 µM [inhibitor, single point]
Cc1ccc(NC(=O)c2nc[nH]c2C(=O)N2CCOCC2)c(C(=O)c2ccccc2)c1	inconclusive: 39.8 µM [inhibitor, partial curve]
COc1ccccc1N1CCN(CC(=O)c2c(C)[nH]c3ccccc23)CC1	inconclusive: 79.4 µM [inhibitor, single point]
COc1ccc(-c2nc(SCC(=O)Nc3ccc4c(c3)OCO4)c(-c3ccccc3)[nH]2)cc1	inconclusive: 28.2 µM [inhibitor, partial curve]
COc1cccc(CNC(=O)c2ccc3c(c2)N(C)C(=O)C2CCCCN32)c1 (stereo not given)	inactive
O=C(CCS(=O)(=O)c1ccccc1)N1CCN(c2ccccc2F)CC1	inactive
COC(=O)c1[nH]c2c(c1C)C(=O)CC(c1cccc(OC)c1)C2 (stereo not given)	active: 44.7 µM
